Test results from article PMC3681493.
These are yes or no findings as the source states them, for the method shown. Binding seen in cells or lysates may run through a third protein. Some results given as binding are weak or reduced against the parent protein; the word gives no strength.

Amino acid sequences for entries named in this document (tags omitted). A change or cut given only in a name is not applied to a line headed by its entry.
UniProt P35222: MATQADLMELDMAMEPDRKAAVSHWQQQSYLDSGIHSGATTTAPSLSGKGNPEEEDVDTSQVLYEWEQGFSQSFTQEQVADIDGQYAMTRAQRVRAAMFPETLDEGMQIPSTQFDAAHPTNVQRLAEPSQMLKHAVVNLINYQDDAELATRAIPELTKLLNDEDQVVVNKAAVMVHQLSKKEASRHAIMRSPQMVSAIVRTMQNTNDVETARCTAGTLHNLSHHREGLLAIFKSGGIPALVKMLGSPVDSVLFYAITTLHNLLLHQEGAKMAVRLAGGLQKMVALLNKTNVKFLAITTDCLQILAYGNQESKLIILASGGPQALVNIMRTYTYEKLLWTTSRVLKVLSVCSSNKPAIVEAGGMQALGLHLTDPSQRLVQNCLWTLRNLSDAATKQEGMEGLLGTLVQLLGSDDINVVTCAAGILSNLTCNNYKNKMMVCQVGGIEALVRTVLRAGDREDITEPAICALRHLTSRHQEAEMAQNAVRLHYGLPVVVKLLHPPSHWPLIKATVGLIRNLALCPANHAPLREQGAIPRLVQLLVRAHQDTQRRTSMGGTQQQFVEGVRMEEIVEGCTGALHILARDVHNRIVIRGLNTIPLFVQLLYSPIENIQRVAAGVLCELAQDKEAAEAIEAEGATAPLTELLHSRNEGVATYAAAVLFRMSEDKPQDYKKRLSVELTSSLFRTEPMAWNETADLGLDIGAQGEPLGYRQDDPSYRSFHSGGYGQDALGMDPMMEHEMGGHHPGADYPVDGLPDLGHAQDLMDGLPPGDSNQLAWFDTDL
UniProt Q9NQB0: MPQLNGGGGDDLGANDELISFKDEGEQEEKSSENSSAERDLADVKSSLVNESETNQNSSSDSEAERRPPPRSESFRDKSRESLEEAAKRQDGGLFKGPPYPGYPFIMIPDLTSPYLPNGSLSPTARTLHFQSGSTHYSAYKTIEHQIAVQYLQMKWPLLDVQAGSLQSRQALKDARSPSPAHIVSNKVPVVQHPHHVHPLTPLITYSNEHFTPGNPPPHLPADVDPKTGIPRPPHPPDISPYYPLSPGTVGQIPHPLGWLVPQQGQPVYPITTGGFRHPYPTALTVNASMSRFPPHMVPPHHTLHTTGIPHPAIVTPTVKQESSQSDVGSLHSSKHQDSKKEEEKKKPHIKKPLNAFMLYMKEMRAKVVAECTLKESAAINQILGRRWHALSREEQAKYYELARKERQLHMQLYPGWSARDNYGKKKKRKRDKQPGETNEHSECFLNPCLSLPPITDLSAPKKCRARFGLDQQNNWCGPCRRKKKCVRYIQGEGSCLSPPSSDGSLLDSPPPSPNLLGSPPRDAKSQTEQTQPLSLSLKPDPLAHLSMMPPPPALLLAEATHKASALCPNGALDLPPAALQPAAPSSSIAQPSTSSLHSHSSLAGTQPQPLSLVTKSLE
UniProt Q9BT81: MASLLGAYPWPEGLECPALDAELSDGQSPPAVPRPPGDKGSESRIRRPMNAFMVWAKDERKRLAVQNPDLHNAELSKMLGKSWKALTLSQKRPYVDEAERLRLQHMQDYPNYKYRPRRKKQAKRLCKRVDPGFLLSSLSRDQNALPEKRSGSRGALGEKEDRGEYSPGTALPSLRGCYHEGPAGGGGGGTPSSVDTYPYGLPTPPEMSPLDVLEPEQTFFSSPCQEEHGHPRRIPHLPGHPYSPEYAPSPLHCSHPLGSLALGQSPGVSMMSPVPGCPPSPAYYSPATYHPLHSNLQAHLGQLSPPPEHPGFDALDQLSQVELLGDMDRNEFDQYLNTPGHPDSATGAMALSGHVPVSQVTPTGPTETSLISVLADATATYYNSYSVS

What was measured:
Test in all cases: co-IP; HEK293 cells transiently co-transfected with Flag/Sox7 and HA/β-catenin, or GFP/mutant β-catenin, or Myc/TCF4; IgG as control antibody; procedure as in refs 16, 17
[1] = molecular target: HA/β-catenin (wild-type β-catenin) (UniProt P35222)
Myc/TCF4 fusion protein = Myc/TCF4 fusion protein (UniProt Q9NQB0)
[2] = molecular target: GFP/mutant β-catenin S37A (UniProt P35222)

Measured: binding

Flag-tagged Sox7 fusion protein (from UniProt Q9BT81 1-388)
binds: all assays above
